Results as given in the supplement of paper PMC8728848.
This is one part of the list.

What was measured:
Assay in all cases: glycan array binding signal (z-score within array); higher = stronger binding
Details in all cases: glycan notation: IUPAC condensed, linker removed
[1] = molecular target: Fuc(a1-3)[Gal3S(b1-4)]Glc6S
Summary of the method: (§1)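 Glycan array data were curated from 3228 arrays in the Consortium for Functional Glycomics database and kept only where the protein sequence was available. Glycan names were converted to IUPAC-condensed notation, and columns mapping to the same glycan were averaged. The binding signal is a within-array Z-score, averaged across arrays of the same protein sequence at different concentrations or buffers and across linkers. Negative Z-scores can be read as non-binding.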

[2] = molecular target: Fuc(a1-3)[Gal3S(b1-4)]GlcNAc
Summary of the method: as §1

[3] = molecular target: Fuc(a1-3)[Gal3S(b1-4)]GlcNAc6S
Summary of the method: as §1

[4] = molecular target: Fuc(a1-3)[GalNAc(b1-4)]GlcNAc
Summary of the method: as §1

[5] = molecular target: Fuc(a1-3)[GalNAc(b1-4)]GlcNAc6S
Summary of the method: as §1

[6] = molecular target: Fuc(a1-4)GlcNAc
Summary of the method: as §1

[7] = molecular target: Fuc(b1-3)GlcNAc
Summary of the method: as §1

[8] = molecular target: Gal(a1-2)Gal
Summary of the method: as §1

[9] = molecular target: Gal(a1-3)Gal
Summary of the method: as §1

[10] = molecular target: Gal(a1-3)Gal(b1-3)GlcNAc
Summary of the method: as §1

[11] = molecular target: Gal(a1-3)Gal(b1-3)GlcNAc(b1-2)Man
Summary of the method: as §1

[12] = molecular target: Gal(a1-3)Gal(b1-3)GlcNAc(b1-2)Man(a1-3)[Gal(a1-3)Gal(b1-3)GlcNAc(b1-2)Man(a1-6)]Man(b1-4)GlcNAc(b1-4)GlcNAc
Summary of the method: as §1

[13] = molecular target: Gal(a1-3)Gal(b1-3)GlcNAc(b1-3)GalNAc
Summary of the method: as §1

[14] = molecular target: Gal(a1-3)Gal(b1-3)GlcNAc(b1-6)GalNAc
Summary of the method: as §1

[15] = molecular target: Gal(a1-3)Gal(b1-3)[Fuc(a1-4)]GlcNAc(b1-2)Man(a1-3)[Gal(a1-3)Gal(b1-3)[Fuc(a1-4)]GlcNAc(b1-2)Man(a1-6)]Man(b1-4)GlcNAc(b1-4)GlcNAc
Summary of the method: as §1

[16] = molecular target: Gal(a1-3)Gal(b1-4)Glc
Summary of the method: as §1

[17] = molecular target: Gal(a1-3)Gal(b1-4)GlcNAc
Summary of the method: as §1

[18] = molecular target: Gal(a1-3)Gal(b1-4)GlcNAc(b1-2)Man
Summary of the method: as §1

[19] = molecular target: Gal(a1-3)Gal(b1-4)GlcNAc(b1-2)Man(a1-3)[Gal(a1-3)Gal(b1-4)GlcNAc(b1-2)Man(a1-6)]Man(b1-4)GlcNAc(b1-4)GlcNAc
Summary of the method: as §1

[20] = molecular target: Gal(a1-3)Gal(b1-4)GlcNAc(b1-3)GalNAc
Summary of the method: as §1

[21] = molecular target: Gal(a1-3)Gal(b1-4)GlcNAc(b1-6)GalNAc
Summary of the method: as §1

[22] = molecular target: Gal(a1-3)Gal(b1-4)[Fuc(a1-3)]GlcNAc
Summary of the method: as §1

[23] = molecular target: Gal(a1-3)Gal(b1-4)[Fuc(a1-3)]GlcNAc(b1-2)Man(a1-3)[Gal(a1-3)Gal(b1-4)[Fuc(a1-3)]GlcNAc(b1-2)Man(a1-6)]Man(b1-4)GlcNAc(b1-4)GlcNAc
Summary of the method: as §1

[24] = molecular target: Gal(a1-3)GalNAc
Summary of the method: as §1

[25] = molecular target: Gal(a1-3)[Gal(a1-4)]Gal(b1-4)GlcNAc
Summary of the method: as §1

[26] = molecular target: Gal(a1-4)Gal(b1-3)GlcNAc(b1-2)Man(a1-3)[Gal(a1-4)Gal(b1-3)GlcNAc(b1-2)Man(a1-6)]Man(b1-4)GlcNAc(b1-4)GlcNAc
Summary of the method: as §1

[27] = molecular target: Gal(a1-4)Gal(b1-4)Glc
Summary of the method: as §1

[28] = molecular target: Gal(a1-4)Gal(b1-4)GlcNAc
Summary of the method: as §1

[29] = molecular target: Gal(a1-4)Gal(b1-4)GlcNAc(b1-2)Man(a1-3)[Gal(a1-4)Gal(b1-4)GlcNAc(b1-2)Man(a1-6)]Man(b1-4)GlcNAc(b1-4)GlcNAc
Summary of the method: as §1

[30] = molecular target: Gal(a1-4)Gal(b1-4)GlcNAc(b1-3)Gal(b1-4)Glc
Summary of the method: as §1

[31] = molecular target: Gal(a1-4)GlcNAc
Summary of the method: as §1

[32] = molecular target: Gal(a1-6)Glc
Summary of the method: as §1

[33] = molecular target: Gal(b1-2)Gal
Summary of the method: as §1

[34] = molecular target: Gal(b1-3)Gal
Summary of the method: as §1

[35] = molecular target: Gal(b1-3)Gal(b1-4)GlcNAc
Summary of the method: as §1

[36] = molecular target: Gal(b1-3)Gal(b1-4)GlcNAc(b1-2)Man(a1-3)[Gal(b1-3)Gal(b1-4)GlcNAc(b1-2)Man(a1-6)]Man(b1-4)GlcNAc(b1-4)GlcNAc
Summary of the method: as §1

[37] = molecular target: Gal(b1-3)GalNAc
Summary of the method: as §1

[38] = molecular target: Gal(b1-3)GalNAc(a1-3)[Fuc(a1-2)]Gal(b1-4)Glc
Summary of the method: as §1

B1: GST Gap3 (Streptococcus parasanguinis) (protein)
chain: MTKQLISEIYWNEIRKGENYLYGSQIKFQEDLVNFYNPQLASGKPIVTFKSRTNYQGDRHSPDLPILIQGNRYLLEYQIDAVPANSFFLQLDFFNRQAEQIESIVLRNSGESFIFPKDTFTYTLTLMSAGCQSVTYQKFMIYDINDEEKKNHIVENRYLRELLPKDLDLVKNLIEYI
glycan array binding signal (z-score) [1]: -0.1
glycan array binding signal (z-score) [2]: -0.269
glycan array binding signal (z-score) [3]: 0.531
glycan array binding signal (z-score) [4]: -0.383
glycan array binding signal (z-score) [5]: 0.226
glycan array binding signal (z-score) [6]: -0.387
glycan array binding signal (z-score) [7]: -0.437
glycan array binding signal (z-score) [8]: -0.168
glycan array binding signal (z-score) [9]: 0.127
glycan array binding signal (z-score) [10]: -0.139
glycan array binding signal (z-score) [11]: -0.239
glycan array binding signal (z-score) [12]: 1.57
glycan array binding signal (z-score) [13]: 0.415
glycan array binding signal (z-score) [14]: -0.062
glycan array binding signal (z-score) [15]: 0.8
glycan array binding signal (z-score) [16]: 0.099
glycan array binding signal (z-score) [17]: 0.188
glycan array binding signal (z-score) [18]: -0.118
glycan array binding signal (z-score) [19]: -0.248
glycan array binding signal (z-score) [20]: -0.262
glycan array binding signal (z-score) [21]: -0.054
glycan array binding signal (z-score) [22]: 0.885
glycan array binding signal (z-score) [23]: 0.16
glycan array binding signal (z-score) [24]: -0.06
glycan array binding signal (z-score) [25]: 0.146
glycan array binding signal (z-score) [26]: 0.18
glycan array binding signal (z-score) [27]: -0.1
glycan array binding signal (z-score) [28]: -0.282
glycan array binding signal (z-score) [29]: 0.15
glycan array binding signal (z-score) [30]: -0.218
glycan array binding signal (z-score) [31]: -0.054
glycan array binding signal (z-score) [32]: 0.127
glycan array binding signal (z-score) [33]: -0.158
glycan array binding signal (z-score) [34]: -0.235
glycan array binding signal (z-score) [35]: -0.092
glycan array binding signal (z-score) [36]: 1.9
glycan array binding signal (z-score) [37]: -0.182
glycan array binding signal (z-score) [38]: -0.333
